These are yes or no findings as the source states them, for the method shown. Binding seen in cells or lysates may run through a third protein. Some entries that bind do so weakly or less than the wild type.
Molecular target: Toll-like receptor 4 (TLR4) (mouse (endogenous in mouse synovial tissue)) (UniProt Q9QUK6)
Assay: co-IP; mouse synovial tissue lysed in NP-40 lysis buffer with protease inhibitor cocktail; immunoprecipitation with a TLR4 antibody at 4 °C, protein A+G agarose beads 4 h at 4 °C; isotype control antibody in parallel; Western blot

The chains behind the UniProt entries cited, without tags or fusion partners. Residues count along the entry.
UniProt Q9QUK6, residues 26-835: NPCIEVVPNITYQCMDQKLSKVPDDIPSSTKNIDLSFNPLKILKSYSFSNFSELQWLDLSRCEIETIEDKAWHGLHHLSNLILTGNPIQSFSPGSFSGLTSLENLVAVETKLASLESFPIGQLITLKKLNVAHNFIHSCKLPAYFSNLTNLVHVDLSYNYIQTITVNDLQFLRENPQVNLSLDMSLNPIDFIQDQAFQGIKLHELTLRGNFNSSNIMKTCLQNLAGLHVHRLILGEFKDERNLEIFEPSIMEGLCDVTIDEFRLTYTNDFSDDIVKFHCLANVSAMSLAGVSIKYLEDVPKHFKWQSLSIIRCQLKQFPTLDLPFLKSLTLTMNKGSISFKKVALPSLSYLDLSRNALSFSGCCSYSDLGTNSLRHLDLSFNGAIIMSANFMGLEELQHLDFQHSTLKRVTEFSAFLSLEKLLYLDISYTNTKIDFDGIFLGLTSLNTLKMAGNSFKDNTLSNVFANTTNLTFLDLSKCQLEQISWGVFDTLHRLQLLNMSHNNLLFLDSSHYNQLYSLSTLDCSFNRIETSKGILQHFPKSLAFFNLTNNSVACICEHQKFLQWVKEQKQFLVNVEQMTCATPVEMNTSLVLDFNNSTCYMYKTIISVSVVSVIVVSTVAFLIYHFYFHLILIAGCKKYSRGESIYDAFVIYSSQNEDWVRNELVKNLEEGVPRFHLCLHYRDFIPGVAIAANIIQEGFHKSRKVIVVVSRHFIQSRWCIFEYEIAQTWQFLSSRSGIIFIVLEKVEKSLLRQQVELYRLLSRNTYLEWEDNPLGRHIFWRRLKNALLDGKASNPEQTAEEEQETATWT

- binding: binds
B1: C-C motif chemokine receptor like 2 (CCRL2) (receptor, UniProt O35457 1-360)
chain: MDNYTVAPDDEYDVLILDDYLDNSGPDQVPAPEFLSPQQVLQFCCAVFAVGLLDNVLAVFILVKYKGLKNLGNIYFLNLALSNLCFLLPLPFWAHTAAHGESPGNGTCKVLVGLHSSGLYSEVFSNILLLVQGYRVFSQGRLASIFTTVSCGIVACILAWAMATALSLPESVFYEPRMERQKHKCAFGKPHFLPIEAPLWKYVLTSKMIILVLAFPLLVFIICCRQLRRRQSFRERQYDLHKPALVITGVFLLMWAPYNTVLFLSAFQEHLSLQDEKSSYHLDASVQVTQLVATTHCCVNPLLYLLLDRKAFMRYLRSLFPRCNDIPYQSSGGYQQAPPREGHGRPIELYSNLHQRQDII
